No constants are given. Whether binding was seen depends on the method and setting. In cells and extracts the contact can be indirect. Some results given as binding are weak or reduced against the parent protein; the word gives no strength.
Biological target: GST-fused HDGF (human) (UniProt P51858)
Assay: pull-down; GST-HDGF on Glutathione-Sepharose 4B beads, washed with NETN buffer, added to E. coli lysate (300 μL) containing 6xHis-tagged NCL proteins; 1 hour on ice; washed with NETN buffer; blotted with anti-6xHis and anti-GST antibodies; only the target purified

Amino acid sequences for entries named in this document (tags omitted). A change or cut given only in a name is not applied to a line headed by its entry.
UniProt P51858: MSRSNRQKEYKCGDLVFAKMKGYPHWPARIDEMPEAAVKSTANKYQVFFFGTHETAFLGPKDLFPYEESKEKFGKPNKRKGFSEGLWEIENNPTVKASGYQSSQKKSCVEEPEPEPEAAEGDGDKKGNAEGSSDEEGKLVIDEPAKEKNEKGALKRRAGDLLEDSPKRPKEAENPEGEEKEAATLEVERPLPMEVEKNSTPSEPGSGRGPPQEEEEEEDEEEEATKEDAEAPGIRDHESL
UniProt P19338: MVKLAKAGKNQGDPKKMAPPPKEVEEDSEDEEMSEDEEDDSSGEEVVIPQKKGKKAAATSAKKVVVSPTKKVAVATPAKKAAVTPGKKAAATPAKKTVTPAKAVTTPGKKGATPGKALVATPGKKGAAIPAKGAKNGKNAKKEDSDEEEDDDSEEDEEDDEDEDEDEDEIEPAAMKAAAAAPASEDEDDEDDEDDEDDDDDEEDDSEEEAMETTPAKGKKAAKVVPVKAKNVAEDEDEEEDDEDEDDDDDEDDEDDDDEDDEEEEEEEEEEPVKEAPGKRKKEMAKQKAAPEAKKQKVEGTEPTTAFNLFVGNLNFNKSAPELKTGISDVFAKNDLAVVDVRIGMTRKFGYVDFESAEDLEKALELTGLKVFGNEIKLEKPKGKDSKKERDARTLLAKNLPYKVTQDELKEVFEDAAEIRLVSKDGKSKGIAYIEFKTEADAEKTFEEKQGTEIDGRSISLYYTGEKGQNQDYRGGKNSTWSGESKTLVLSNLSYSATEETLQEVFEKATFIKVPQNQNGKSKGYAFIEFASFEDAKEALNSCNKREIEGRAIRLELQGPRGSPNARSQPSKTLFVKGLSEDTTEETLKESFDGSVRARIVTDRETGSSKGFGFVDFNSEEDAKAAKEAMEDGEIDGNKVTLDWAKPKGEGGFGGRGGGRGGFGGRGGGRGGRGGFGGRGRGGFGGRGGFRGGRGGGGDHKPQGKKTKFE

binding	Substance
binds	6xHis-tagged NCL1 (N-terminal domain of NCL, residues 1-284) (from UniProt P19338 1-284) (domain or fragment)
binds	6xHis-tagged NCL residues 1-707 (from UniProt P19338 1-707)
